According to the supplement of paper PMC10849652:
The other results are listed elsewhere or left out.

By UniProt entry, the sequences of proteins in these tests, tags left out. Where a name states a change or a piece, a line headed by the entry shows the natural chain unless it says otherwise.
UniProt P09496: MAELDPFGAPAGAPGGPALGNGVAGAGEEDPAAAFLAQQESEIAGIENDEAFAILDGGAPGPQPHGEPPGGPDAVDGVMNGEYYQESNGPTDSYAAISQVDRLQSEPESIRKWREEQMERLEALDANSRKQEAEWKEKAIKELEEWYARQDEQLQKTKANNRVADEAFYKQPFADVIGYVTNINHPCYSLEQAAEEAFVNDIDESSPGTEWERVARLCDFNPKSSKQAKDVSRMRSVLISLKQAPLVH
UniProt Q9UFF9, whole entry, looked up: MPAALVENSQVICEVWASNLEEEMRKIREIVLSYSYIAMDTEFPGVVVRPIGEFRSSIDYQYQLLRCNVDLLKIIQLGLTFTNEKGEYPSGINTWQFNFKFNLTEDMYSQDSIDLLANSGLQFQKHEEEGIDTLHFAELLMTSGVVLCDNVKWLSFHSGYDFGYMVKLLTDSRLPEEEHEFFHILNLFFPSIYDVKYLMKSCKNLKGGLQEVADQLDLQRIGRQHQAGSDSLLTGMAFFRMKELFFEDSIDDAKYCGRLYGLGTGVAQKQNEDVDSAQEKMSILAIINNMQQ
UniProt P12277: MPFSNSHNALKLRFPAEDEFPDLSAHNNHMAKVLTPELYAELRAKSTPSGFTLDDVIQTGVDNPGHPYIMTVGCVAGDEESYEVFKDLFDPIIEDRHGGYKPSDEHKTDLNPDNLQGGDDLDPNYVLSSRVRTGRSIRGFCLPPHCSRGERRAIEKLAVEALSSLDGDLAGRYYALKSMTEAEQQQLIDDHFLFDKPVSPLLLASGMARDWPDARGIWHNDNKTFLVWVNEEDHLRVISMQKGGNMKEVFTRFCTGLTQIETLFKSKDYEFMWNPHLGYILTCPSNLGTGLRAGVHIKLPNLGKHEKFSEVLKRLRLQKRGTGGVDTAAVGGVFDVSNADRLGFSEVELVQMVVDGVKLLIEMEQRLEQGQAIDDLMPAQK
UniProt P09543: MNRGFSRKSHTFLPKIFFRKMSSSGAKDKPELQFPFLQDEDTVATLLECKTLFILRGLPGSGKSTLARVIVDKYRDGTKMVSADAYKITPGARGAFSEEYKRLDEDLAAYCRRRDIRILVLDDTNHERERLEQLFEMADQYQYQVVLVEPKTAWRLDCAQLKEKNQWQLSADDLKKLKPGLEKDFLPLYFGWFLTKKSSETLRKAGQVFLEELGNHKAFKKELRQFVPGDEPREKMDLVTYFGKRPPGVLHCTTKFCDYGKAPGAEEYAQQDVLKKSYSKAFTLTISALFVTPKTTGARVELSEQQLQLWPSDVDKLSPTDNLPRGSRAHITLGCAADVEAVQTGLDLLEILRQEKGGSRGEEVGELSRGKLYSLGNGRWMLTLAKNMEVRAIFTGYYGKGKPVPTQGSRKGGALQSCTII
UniProt P39059: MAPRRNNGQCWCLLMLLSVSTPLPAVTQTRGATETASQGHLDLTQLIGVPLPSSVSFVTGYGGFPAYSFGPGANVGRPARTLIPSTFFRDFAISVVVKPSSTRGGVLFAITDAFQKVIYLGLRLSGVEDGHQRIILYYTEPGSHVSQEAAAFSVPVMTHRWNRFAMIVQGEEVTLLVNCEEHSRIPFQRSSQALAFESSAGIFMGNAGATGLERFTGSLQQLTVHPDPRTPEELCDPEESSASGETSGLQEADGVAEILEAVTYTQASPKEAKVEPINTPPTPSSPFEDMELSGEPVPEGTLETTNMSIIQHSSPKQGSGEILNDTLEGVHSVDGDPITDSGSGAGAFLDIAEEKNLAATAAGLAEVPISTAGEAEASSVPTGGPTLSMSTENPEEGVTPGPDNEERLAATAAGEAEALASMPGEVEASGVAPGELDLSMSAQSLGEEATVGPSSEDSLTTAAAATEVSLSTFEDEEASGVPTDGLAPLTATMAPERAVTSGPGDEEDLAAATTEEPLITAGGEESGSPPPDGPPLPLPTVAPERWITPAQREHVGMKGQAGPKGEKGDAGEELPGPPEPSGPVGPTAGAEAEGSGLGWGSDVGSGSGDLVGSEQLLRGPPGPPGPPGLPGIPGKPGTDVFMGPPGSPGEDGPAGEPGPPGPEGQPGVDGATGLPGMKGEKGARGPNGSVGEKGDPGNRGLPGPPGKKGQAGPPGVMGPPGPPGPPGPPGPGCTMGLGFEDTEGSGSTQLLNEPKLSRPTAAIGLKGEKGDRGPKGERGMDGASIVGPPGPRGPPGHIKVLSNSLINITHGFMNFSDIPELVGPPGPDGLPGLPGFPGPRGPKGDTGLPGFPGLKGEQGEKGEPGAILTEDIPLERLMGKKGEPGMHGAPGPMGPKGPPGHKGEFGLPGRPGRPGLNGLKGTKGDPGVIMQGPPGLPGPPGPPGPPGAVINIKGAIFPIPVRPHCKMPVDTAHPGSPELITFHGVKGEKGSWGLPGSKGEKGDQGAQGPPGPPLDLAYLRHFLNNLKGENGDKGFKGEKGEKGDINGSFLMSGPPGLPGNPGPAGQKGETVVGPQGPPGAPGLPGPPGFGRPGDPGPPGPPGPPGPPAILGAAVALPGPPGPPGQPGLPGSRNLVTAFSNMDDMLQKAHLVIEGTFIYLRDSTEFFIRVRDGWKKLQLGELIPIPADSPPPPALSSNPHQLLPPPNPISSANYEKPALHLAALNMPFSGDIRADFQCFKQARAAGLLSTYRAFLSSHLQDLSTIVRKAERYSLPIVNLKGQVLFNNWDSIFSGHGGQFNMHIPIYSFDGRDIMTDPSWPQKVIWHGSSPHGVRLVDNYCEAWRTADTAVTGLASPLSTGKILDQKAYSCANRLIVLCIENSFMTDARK
UniProt Q96BR5: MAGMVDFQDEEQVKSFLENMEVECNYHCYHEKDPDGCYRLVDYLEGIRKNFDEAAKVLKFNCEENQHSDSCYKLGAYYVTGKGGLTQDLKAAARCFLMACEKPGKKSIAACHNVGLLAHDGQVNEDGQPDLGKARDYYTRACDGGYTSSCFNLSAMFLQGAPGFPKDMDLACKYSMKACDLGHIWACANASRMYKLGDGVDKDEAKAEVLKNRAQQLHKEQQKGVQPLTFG
UniProt Q14008: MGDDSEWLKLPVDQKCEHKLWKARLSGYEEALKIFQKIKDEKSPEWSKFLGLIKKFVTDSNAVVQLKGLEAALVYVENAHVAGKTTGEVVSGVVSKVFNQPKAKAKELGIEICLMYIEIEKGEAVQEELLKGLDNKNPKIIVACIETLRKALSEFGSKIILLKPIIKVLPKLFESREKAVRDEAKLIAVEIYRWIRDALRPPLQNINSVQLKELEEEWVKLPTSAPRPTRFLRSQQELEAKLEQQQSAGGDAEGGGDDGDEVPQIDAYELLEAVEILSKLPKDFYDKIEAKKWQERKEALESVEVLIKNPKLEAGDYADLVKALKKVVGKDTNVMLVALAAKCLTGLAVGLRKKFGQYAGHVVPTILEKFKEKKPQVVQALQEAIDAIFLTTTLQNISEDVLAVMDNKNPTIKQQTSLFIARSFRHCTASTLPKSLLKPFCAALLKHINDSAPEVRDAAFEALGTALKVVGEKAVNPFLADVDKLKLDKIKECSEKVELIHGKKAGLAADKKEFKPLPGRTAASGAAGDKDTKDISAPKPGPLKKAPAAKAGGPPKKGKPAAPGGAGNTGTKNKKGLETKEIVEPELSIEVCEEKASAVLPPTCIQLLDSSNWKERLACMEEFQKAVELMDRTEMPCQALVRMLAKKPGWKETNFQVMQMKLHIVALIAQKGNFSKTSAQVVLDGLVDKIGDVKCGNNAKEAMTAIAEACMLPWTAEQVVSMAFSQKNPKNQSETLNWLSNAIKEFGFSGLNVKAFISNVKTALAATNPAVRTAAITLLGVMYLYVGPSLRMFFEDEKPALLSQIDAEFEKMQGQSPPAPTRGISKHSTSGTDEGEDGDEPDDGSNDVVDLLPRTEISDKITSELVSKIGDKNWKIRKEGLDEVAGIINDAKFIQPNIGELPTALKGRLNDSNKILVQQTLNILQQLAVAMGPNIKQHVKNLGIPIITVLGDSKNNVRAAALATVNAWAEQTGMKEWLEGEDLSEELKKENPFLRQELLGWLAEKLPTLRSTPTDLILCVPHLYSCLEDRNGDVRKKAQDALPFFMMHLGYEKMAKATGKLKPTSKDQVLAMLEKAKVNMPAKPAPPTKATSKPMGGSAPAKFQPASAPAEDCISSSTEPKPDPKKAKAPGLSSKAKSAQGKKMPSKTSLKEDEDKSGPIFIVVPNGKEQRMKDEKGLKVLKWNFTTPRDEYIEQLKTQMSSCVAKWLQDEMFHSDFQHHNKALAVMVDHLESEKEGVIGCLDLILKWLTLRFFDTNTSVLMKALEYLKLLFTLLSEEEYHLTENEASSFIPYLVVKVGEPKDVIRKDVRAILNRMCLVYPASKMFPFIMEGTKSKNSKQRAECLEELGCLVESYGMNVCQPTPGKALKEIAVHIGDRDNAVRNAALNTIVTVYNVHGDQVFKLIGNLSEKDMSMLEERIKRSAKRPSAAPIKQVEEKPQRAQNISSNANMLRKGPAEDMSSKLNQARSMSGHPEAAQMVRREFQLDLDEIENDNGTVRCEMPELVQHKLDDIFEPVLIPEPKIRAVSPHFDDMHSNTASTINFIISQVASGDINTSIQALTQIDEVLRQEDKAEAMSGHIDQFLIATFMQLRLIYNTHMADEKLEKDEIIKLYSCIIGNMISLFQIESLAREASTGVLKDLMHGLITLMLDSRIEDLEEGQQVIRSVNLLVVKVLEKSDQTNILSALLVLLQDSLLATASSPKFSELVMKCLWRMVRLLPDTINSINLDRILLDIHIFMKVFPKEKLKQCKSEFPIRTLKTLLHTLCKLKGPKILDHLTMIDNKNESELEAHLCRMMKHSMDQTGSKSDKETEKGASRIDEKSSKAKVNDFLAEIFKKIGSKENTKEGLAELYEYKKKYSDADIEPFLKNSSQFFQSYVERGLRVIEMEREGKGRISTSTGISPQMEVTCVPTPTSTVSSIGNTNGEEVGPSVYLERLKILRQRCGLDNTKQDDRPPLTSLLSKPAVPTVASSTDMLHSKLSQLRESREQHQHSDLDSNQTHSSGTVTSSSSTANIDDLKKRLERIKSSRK
UniProt Q16740, whole entry, looked up: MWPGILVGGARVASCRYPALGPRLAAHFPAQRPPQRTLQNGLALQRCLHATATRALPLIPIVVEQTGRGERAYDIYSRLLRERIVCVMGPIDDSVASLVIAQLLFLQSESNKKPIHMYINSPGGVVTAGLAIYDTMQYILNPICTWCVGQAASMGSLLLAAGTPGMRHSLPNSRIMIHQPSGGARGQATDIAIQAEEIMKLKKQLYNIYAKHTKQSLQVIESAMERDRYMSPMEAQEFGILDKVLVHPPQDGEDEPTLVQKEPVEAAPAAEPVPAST
UniProt Q96KA5: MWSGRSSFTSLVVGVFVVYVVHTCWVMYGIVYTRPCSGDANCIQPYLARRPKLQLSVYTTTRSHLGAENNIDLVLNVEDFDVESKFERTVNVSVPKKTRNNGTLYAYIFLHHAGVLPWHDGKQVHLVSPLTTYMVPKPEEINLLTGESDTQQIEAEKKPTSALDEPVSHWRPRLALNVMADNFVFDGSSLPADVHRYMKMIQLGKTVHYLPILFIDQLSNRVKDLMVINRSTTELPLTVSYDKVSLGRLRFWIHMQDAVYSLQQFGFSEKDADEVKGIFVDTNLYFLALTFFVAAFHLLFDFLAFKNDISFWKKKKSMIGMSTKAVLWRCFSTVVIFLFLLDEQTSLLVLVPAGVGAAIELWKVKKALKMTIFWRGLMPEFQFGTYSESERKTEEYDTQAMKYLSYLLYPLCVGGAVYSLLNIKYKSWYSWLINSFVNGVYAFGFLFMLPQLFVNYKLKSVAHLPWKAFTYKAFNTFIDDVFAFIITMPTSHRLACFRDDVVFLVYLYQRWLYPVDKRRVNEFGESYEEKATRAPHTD
UniProt Q9NRP2: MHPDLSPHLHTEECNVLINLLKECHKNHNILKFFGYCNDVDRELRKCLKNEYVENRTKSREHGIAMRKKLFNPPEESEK
UniProt Q9H078: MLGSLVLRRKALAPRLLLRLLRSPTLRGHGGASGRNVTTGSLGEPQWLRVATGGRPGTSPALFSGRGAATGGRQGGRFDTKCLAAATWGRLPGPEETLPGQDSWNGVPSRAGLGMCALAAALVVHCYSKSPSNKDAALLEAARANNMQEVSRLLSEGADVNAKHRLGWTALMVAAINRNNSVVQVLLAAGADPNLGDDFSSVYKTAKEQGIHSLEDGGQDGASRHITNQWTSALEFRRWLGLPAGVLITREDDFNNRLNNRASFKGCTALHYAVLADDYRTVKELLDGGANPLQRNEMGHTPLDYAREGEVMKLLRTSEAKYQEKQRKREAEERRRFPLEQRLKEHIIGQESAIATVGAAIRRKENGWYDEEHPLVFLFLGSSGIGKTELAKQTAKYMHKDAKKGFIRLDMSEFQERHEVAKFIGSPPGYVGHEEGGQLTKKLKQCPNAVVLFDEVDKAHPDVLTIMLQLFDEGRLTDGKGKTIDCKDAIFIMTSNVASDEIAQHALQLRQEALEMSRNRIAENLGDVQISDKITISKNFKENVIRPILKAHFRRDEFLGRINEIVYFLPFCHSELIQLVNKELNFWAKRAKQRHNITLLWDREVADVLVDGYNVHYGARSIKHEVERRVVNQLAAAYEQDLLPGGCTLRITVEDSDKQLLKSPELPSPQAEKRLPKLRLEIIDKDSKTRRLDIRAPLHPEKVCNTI

Compound: CCCc1cc(C)[nH]c(=O)c1CNC(=O)c1cc(-c2ccnc(N3CCN(C)CC3)c2)cc2c1cnn2C(C)C
Test: log2 fold change, soluble protein after heating vs DMSO (PISA); higher = thermal stabilisation; K562 cells, 10 uM, 30 min; active = over 0.2 and 3.5 SD of the protein, either way, in both replicates (recomputed)
Method in brief: (§1)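 Aliquots of K562 cells (2×10^6 cells/mL) treated with 10 μM compound for 30 min were heated for 3 min over 48°C-58°C. After pooling and extraction in PBS with 0.5% NP-40 at 4°C, soluble protein from a 21,000xg, 90 min spin was quantified by TMTpro 16plex LC-MS/MS with channel sums equalised. Thermal stability is expressed against control samples, from duplicates, as a log2 fold change.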

log2 fold change, inactive:
CISD3 (UniProt P0C7P0) 0.016
CLTA isoform 2 (UniProt P09496) 0.08
CMSS1 (UniProt Q9BQ75) 0.045
CNOT8 (UniProt Q9UFF9) -0.292
COA3 (UniProt Q9Y2R0) -0.001
CKB (UniProt P12277) -0.016
CNP (UniProt P09543) -0.042
CNOT6L (UniProt Q96LI5) -0.02
COL15A1 (UniProt P39059) -0.021
CLCN7 (UniProt P51798) -0.068
CLEC16A (UniProt Q2KHT3) 0.028
CLTB (UniProt P09497) -0.036
COA7 (UniProt Q96BR5) -0.112
CLASP1 (UniProt Q7Z460) 0.026
CNTN4 (UniProt Q8IWV2) 0.364
CKAP5 (UniProt Q14008) 0.065
CNOT10 isoform 6 (UniProt Q9H9A5) 0
CLIC1 (UniProt O00299) -0.04
CLNS1A (UniProt P54105) 0.019
CMAS (UniProt Q8NFW8) 0.093
CKMT1A (UniProt P12532) 0.066
CLIP1 isoform 1 (UniProt P30622) 0.001
CIAO2A (UniProt Q9H5X1) -0.006
CNBP isoform 6 (UniProt P62633) 0.038
CMPK1 (UniProt P30085) -0.068
CLPP (UniProt Q16740) 0.023
CLPTM1L (UniProt Q96KA5) -0.015
CMC2 (UniProt Q9NRP2) -0.072
CISD2 (UniProt Q8N5K1) -0.033
CMTM6 (UniProt Q9NX76) -0.104
CISD1 (UniProt Q9NZ45) -0.01
CLPB isoform 2 (UniProt Q9H078) -0.031
CNOT9 isoform 2 (UniProt Q92600) 0.026

Compound: CCN(CC)Cc1ccc2cc(COC(=O)Nc3ccc(C(=O)NO)cc3)ccc2c1 [givinostat]
Test: as above
Method in brief: as §1

log2 fold change, inactive:
CISD3 (UniProt P0C7P0) -0.005
CLTA isoform 2 (UniProt P09496) -0.01
CMSS1 (UniProt Q9BQ75) -0.009
CNOT8 (UniProt Q9UFF9) -0.018
COA3 (UniProt Q9Y2R0) -0.03
CKB (UniProt P12277) -0.013
CNP (UniProt P09543) -0.027
CNOT6L (UniProt Q96LI5) -0.016
COL15A1 (UniProt P39059) 0.087
CLCN7 (UniProt P51798) -0.007
CLEC16A (UniProt Q2KHT3) 0.016
CLTB (UniProt P09497) 0.047
COA7 (UniProt Q96BR5) -0.081
CLASP1 (UniProt Q7Z460) 0.08
CNTN4 (UniProt Q8IWV2) 0.278
CKAP5 (UniProt Q14008) 0.075
CNOT10 isoform 6 (UniProt Q9H9A5) 0.1
CLIC1 (UniProt O00299) -0.028
CLNS1A (UniProt P54105) -0.008
CMAS (UniProt Q8NFW8) 0.019
CKMT1A (UniProt P12532) -0.061
CLIP1 isoform 1 (UniProt P30622) -0.015
CIAO2A (UniProt Q9H5X1) -0.007
CNBP isoform 6 (UniProt P62633) -0.066
CMPK1 (UniProt P30085) -0.007
CLPP (UniProt Q16740) 0.003
CLPTM1L (UniProt Q96KA5) 0.009
CMC2 (UniProt Q9NRP2) -0.238
CISD2 (UniProt Q8N5K1) 0.022
CMTM6 (UniProt Q9NX76) 0.026
CISD1 (UniProt Q9NZ45) -0.252
CLPB isoform 2 (UniProt Q9H078) 0.031
CNOT9 isoform 2 (UniProt Q92600) 0.043

Compound: CCN(CCCOc1ccc2c(Nc3cc(CC(=O)Nc4cccc(F)c4)[nH]n3)ncnc2c1)CCOP(=O)(O)O [barasertib]
Test: as above
Method in brief: as §1

log2 fold change, inactive:
CISD3 (UniProt P0C7P0) 0.073
CLTA isoform 2 (UniProt P09496) -0.079
CMSS1 (UniProt Q9BQ75) 0.08
CNOT8 (UniProt Q9UFF9) -0.105
COA3 (UniProt Q9Y2R0) 0.013
CKB (UniProt P12277) -0.002
CNP (UniProt P09543) 0.002
CNOT6L (UniProt Q96LI5) 0.015
COL15A1 (UniProt P39059) 0.027
CLCN7 (UniProt P51798) -0.015
CLEC16A (UniProt Q2KHT3) -0.018
CLTB (UniProt P09497) -0.023
COA7 (UniProt Q96BR5) 0.027
CLASP1 (UniProt Q7Z460) 0.08
CNTN4 (UniProt Q8IWV2) 0.055
CKAP5 (UniProt Q14008) 0.049
CNOT10 isoform 6 (UniProt Q9H9A5) -0.009
CLIC1 (UniProt O00299) 0.028
CLNS1A (UniProt P54105) 0.005
CMAS (UniProt Q8NFW8) -0.092
CKMT1A (UniProt P12532) -0.028
CLIP1 isoform 1 (UniProt P30622) 0
CIAO2A (UniProt Q9H5X1) -0.002
CNBP isoform 6 (UniProt P62633) -0.024
CMPK1 (UniProt P30085) -0.001
CLPP (UniProt Q16740) 0.001
CLPTM1L (UniProt Q96KA5) 0.021
CMC2 (UniProt Q9NRP2) 0.035
CISD2 (UniProt Q8N5K1) -0.02
CMTM6 (UniProt Q9NX76) 0.003
CISD1 (UniProt Q9NZ45) -0.021
CLPB isoform 2 (UniProt Q9H078) 0.004
CNOT9 isoform 2 (UniProt Q92600) 0.04
